According to the supplement of paper PMC12578635:
The list shows a part of the results. No stated cut-off is given here; in the data, active = 150% or more and inactive = the rest. Many values rest on one well or one pass, so single values are uncertain.

Tested on: Staphylococcus aureus JE2-lux inside RAW 264.7 macrophages
Assay: intracellular bacterial bioluminescence relative to DMSO vehicle; higher = higher intracellular bacterial metabolic activity
Conditions: 10 µM; treatment time 4 h; gentamicin 50 µg/ml

SMILES | intracellular bacterial bioluminescence
C=CCOc1cc(C2CC(=O)Nc3c2c(C)nn3-c2nncc(-c3ccc(C)cc3)n2)ccc1OC (stereo unspecified) | inactive: 101%
COc1cc(C)c(-c2nc(NC(=O)C3(C)CCCO3)sc2C)cc1C (stereo unspecified) | inactive: 102%
N#Cc1c(NC(=O)CC2SC(=N)NC2=O)sc2c1CCCC2 (stereo unspecified) | inactive: 114%
Cc1csc2nc(O)c(C(=O)NCCCN3CCOCC3)c(=O)n12 | inactive: 127%
CCc1ccc(-c2noc3c(=O)n(CCC(=O)NCCCN4CCCC4=O)cnc23)cc1 | inactive: 90.7%
CCN(CC)c1cc(CNC(=O)Nc2ccc3c(c2)OCO3)ccn1 | inactive: 63.6%
O=C(Cn1c2c(c(=O)n3nc(-c4ccccc4)nc13)CCC2)NCC1CCCO1 (stereo unspecified) | inactive: 96.5%
O=C(COc1ncnc2onc(-c3ccccc3)c12)Nc1ccc(Br)cc1F | inactive: 41.6%
COc1cc(NC(=O)CSc2nnc(-c3ccc(NS(=O)(=O)c4ccccc4)cc3)o2)cc(OC)c1 | inactive: 62.6%
CCOC(=O)c1sc(NC(=O)c2ccc(Cl)s2)c(SC#N)c1C | inactive: 90.7%
COc1ccc(C(=O)CSc2cc(C)[nH]c(=O)n2)cc1 | inactive: 120%
CCCCNS(=O)(=O)c1ccc2[nH]c(=O)cc(C)c2c1 | inactive: 111%
Cc1ccn2c(=O)nc(SCC(=O)c3ccccc3)nc2c1 | inactive: 111%
Cc1ccc2cc(CCNC(=O)c3c(F)cccc3Cl)c(=O)[nH]c2c1C | inactive: 83.8%
CCOC(=O)N1CCC2(CC1)Oc1c(OC)cccc1C1CC(c3cc(C)ccc3O)=NN12 (stereo unspecified) | inactive: 144%
COCCNc1cc(C)nc2cc(-c3cc(OC)cc(OC)c3)nn12 | inactive: 101%
Cc1cc(NC(=O)c2ccccc2C(F)(F)F)n(-c2ncnc3c2cnn3-c2cccc(Cl)c2)n1 | inactive: 119%
Cc1ccc2nc(NCc3ccccc3)c(/C=N/Cc3cccnc3)c(=O)n2c1 | inactive: 91.8%
O=C(COc1ncnc2ccccc12)NC1(CN2CCCC2)CCCCC1 | inactive: 102%
O=C(CSc1nc(=O)[nH]c2c1CCCC2)NCc1ccc2c(c1)OCO2 | inactive: 139%
CC(SC1=Nc2ccccc2C2=NC(c3ccccc3)C(=O)N12)C(=O)Nc1ccc2c(c1)OCCO2 (stereo unspecified) | inactive: 91%
COc1ccc(CCNC(=O)Cn2nc(-c3ccc(C)o3)cc(N)c2=O)cc1OC | inactive: 58.2%
COc1ccc2cc(C)c3nn(CCNC(=O)c4noc5c4CCCC5)c(=O)n3c2c1 | inactive: 79.5%

2 entries from above, field by field.
C=CCOc1cc(C2CC(=O)Nc3c2c(C)nn3-c2nncc(-c3ccc(C)cc3)n2)ccc1OC (stereo unspecified)
  intracellular bacterial bioluminescence: inactive: 101%
COc1cc(C)c(-c2nc(NC(=O)C3(C)CCCO3)sc2C)cc1C (stereo unspecified)
  intracellular bacterial bioluminescence: inactive: 102%

Additional structures follow:

SMILES | intracellular bacterial bioluminescence
N#Cc1c2c(c(NCCCO)n3c1nc1ccccc13)CCC2 | inactive: 120%
COC(=O)CSc1nc(-c2ccc(OC)cc2)nc2c1Cc1cc(C)ccc1O2 | inactive: 89.5%
C=CCN(C(=O)C(C)Sc1nc2ncccc2o1)c1ccccc1 (stereo unspecified) | inactive: 100%
CCN(c1ccccc1)S(=O)(=O)c1ccc(C(=O)Nc2ccc3c(c2)C(=O)N(C)C3=O)cc1 | inactive: 92.6%
COc1ccc(OC)c(NS(=O)(=O)c2c(C)sc(C)c2-c2cc(C(F)(F)F)on2)c1 | inactive: 90.2%
Cc1nc(OCC(=O)NC2CCCc3ccccc32)c2c(-c3cccc(F)c3)noc2n1 (stereo unspecified) | inactive: 51.3%
COc1cc(Cn2nc3n(C)c4ccccc4n3c2=O)cc(OC)c1OC | inactive: 90.6%
COc1ccccc1OCCN(C)C(=O)Cn1cnc2sc(C)cc2c1=O | inactive: 49.3%
CC(Oc1cc2oc(=O)c3c(c2cc1Cl)CCC3)C(=O)O (stereo unspecified) | inactive: 116%
CCn1nnc2cc(-c3noc(C4CC(=O)N(c5ccccc5)C4)n3)ccc21 (stereo unspecified) | inactive: 81.8%
Cn1ncc2c(NCc3ccc(F)cc3)nc(N3CCOCC3)nc21 | active: 166%
COCCn1/c(=N/C(=O)c2cc3ccccc3oc2=O)sc2cc(NC(C)=O)ccc21 | inactive: 103%
CCOC(=O)CC1C(=O)NCCN1Cc1ccc(OC)c(OC)c1 (stereo unspecified) | inactive: 127%
Cc1c(-c2ccccc2)n[nH]c1C(=O)Nc1ccc(Oc2cccnc2)cc1 | inactive: 21.5%
Cc1nnc2ccc(C(=O)NCc3ccc(F)cc3)cn12 | inactive: 107%
Cc1cc(C)c2sc(NNC(=O)c3ccc(S(=O)(=O)N4CCOCC4)cc3)nc2c1 | inactive: 59.8%
CCCCn1c2c(c(=O)[nH]c1=O)C(c1cccc(F)c1)C1=C(COC1=O)N2 (stereo unspecified) | inactive: 109%
Nc1nc(SCc2ccc3c(c2)OCO3)ns1 | inactive: 72.6%
COc1ccccc1-c1nc(SCC(=O)NCC2CCCO2)c2c(=O)n(C)c(=O)n(C)c2n1 (stereo unspecified) | inactive: 103%
COc1ccc(NC(=O)c2cccc3nc4ccccc4nc23)c(OC)c1 | inactive: 75.7%
CN1C(=O)NC(c2cccc(F)c2)C(C(=O)c2cccs2)C1(O)C(F)(F)F (stereo unspecified) | inactive: 91.4%
Oc1ccc(C2=NN3C(C2)c2cc(Br)ccc2OC3c2ccncc2)c(O)c1 (stereo unspecified) | inactive: 114%
Cc1ccc(Cl)c2sc(N3CCN(C(=O)c4cccc([N+](=O)[O-])c4)CC3)nc12 | inactive: 140%
